Some of the results follow.
Assays:
Test in all cases: glycan array binding signal (z-score within array); higher = stronger binding
Details in all cases: glycan notation: IUPAC condensed, linker removed
[1] = molecular target: Fuc(a1-2)[Gal(a1-3)]Gal(b1-4)Glc
How it was run: (§1)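 Glycan array binding is given as a within-array Z-score, which can be read as non-binding when negative. The arrays, 3228 of them, came from the Consortium for Functional Glycomics database and were retained only where the protein sequence was available. Z-scores were averaged across arrays of the same protein sequence at different concentrations or buffers and across linkers.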

[2] = molecular target: Fuc(a1-2)[Gal(a1-3)]Gal(b1-4)GlcNAc
How it was run: as §1

[3] = molecular target: Fuc(a1-2)[Gal(a1-3)]Gal(b1-4)GlcNAc(b1-2)Man(a1-3)[Fuc(a1-2)[Gal(a1-3)]Gal(b1-4)GlcNAc(b1-2)Man(a1-6)]Man(b1-4)GlcNAc(b1-4)GlcNAc
How it was run: as §1

[4] = molecular target: Fuc(a1-2)[Gal(a1-3)]Gal(b1-4)GlcNAc(b1-2)Man(a1-3)[Fuc(a1-2)[Gal(a1-3)]Gal(b1-4)GlcNAc(b1-2)Man(a1-6)]Man(b1-4)GlcNAc(b1-4)[Fuc(a1-6)]GlcNAc
How it was run: as §1

[5] = molecular target: Fuc(a1-2)[Gal(a1-3)]Gal(b1-4)GlcNAc(b1-3)GalNAc
How it was run: as §1

[6] = molecular target: Fuc(a1-2)[Gal(a1-3)]Gal(b1-4)[Fuc(a1-3)]Glc
How it was run: as §1

[7] = molecular target: Fuc(a1-2)[Gal(a1-3)]Gal(b1-4)[Fuc(a1-3)]GlcNAc
How it was run: as §1

[8] = molecular target: Fuc(a1-2)[Gal(a1-3)]Gal(b1-4)[Fuc(a1-3)]GlcNAc(b1-3)GalNAc
How it was run: as §1

[9] = molecular target: Fuc(a1-2)[Gal(a1-4)]Gal(b1-4)GlcNAc
How it was run: as §1

[10] = molecular target: Fuc(a1-2)[GalNAc(a1-3)]Gal
How it was run: as §1

[11] = molecular target: Fuc(a1-2)[GalNAc(a1-3)]Gal(b1-3)GalNAc(a1-3)[Fuc(a1-2)]Gal(b1-4)GlcNAc
How it was run: as §1

[12] = molecular target: Fuc(a1-2)[GalNAc(a1-3)]Gal(b1-3)GlcNAc
How it was run: as §1

[13] = molecular target: Fuc(a1-2)[GalNAc(a1-3)]Gal(b1-3)GlcNAc(b1-2)Man(a1-3)[Fuc(a1-2)[GalNAc(a1-3)]Gal(b1-3)GlcNAc(b1-2)Man(a1-6)]Man(b1-4)GlcNAc(b1-4)GlcNAc
How it was run: as §1

[14] = molecular target: Fuc(a1-2)[GalNAc(a1-3)]Gal(b1-3)GlcNAc(b1-2)Man(a1-3)[Fuc(a1-2)[GalNAc(a1-3)]Gal(b1-3)GlcNAc(b1-2)Man(a1-6)]Man(b1-4)GlcNAc(b1-4)[Fuc(a1-6)]GlcNAc
How it was run: as §1

[15] = molecular target: Fuc(a1-2)[GalNAc(a1-3)]Gal(b1-3)GlcNAc(b1-3)GalNAc
How it was run: as §1

[16] = molecular target: Fuc(a1-2)[GalNAc(a1-3)]Gal(b1-4)Glc
How it was run: as §1

[17] = molecular target: Fuc(a1-2)[GalNAc(a1-3)]Gal(b1-4)GlcNAc
How it was run: as §1

[18] = molecular target: Fuc(a1-2)[GalNAc(a1-3)]Gal(b1-4)GlcNAc(b1-2)Man(a1-3)[Fuc(a1-2)[GalNAc(a1-3)]Gal(b1-4)GlcNAc(b1-2)Man(a1-6)]Man(b1-4)GlcNAc(b1-4)GlcNAc
How it was run: as §1

[19] = molecular target: Fuc(a1-2)[GalNAc(a1-3)]Gal(b1-4)GlcNAc(b1-2)Man(a1-3)[Fuc(a1-2)[GalNAc(a1-3)]Gal(b1-4)GlcNAc(b1-2)Man(a1-6)]Man(b1-4)GlcNAc(b1-4)[Fuc(a1-6)]GlcNAc
How it was run: as §1

[20] = molecular target: Fuc(a1-2)[GalNAc(a1-3)]Gal(b1-4)GlcNAc(b1-3)Gal(b1-4)GlcNAc
How it was run: as §1

[21] = molecular target: Fuc(a1-2)[GalNAc(a1-3)]Gal(b1-4)GlcNAc(b1-3)Gal(b1-4)GlcNAc(b1-3)Gal(b1-4)GlcNAc
How it was run: as §1

[22] = molecular target: Fuc(a1-2)[GalNAc(a1-3)]Gal(b1-4)GlcNAc(b1-3)GalNAc
How it was run: as §1

[23] = molecular target: Fuc(a1-2)[GalNAc(a1-3)]Gal(b1-4)[Fuc(a1-3)]GlcNAc
How it was run: as §1

[24] = molecular target: Fuc(a1-2)[GalNAc(a1-3)]Gal(b1-4)[Fuc(a1-3)]GlcNAc(b1-3)GalNAc
How it was run: as §1

[25] = molecular target: Fuc(a1-2)[GalNAc(a1-4)]Gal(b1-4)GlcNAc
How it was run: as §1

[26] = molecular target: Fuc(a1-2)[GalNAc(b1-3)]Gal
How it was run: as §1

Fuc(a1-3)GlcNAc = molecular target: Fuc(a1-3)GlcNAc
How it was run: as §1

[27] = molecular target: Fuc(a1-3)[Gal(b1-4)]Glc6S
How it was run: as §1

[28] = molecular target: Fuc(a1-3)[Gal(b1-4)]GlcNAc
How it was run: as §1

[29] = molecular target: Fuc(a1-3)[Gal(b1-4)]GlcNAc(b1-2)Man(a1-3)[Fuc(a1-3)[Gal(b1-4)]GlcNAc(b1-2)Man(a1-6)]Man(b1-4)GlcNAc(b1-4)GlcNAc
How it was run: as §1

[30] = molecular target: Fuc(a1-3)[Gal(b1-4)]GlcNAc(b1-2)Man(a1-3)[Fuc(a1-3)[Gal(b1-4)]GlcNAc(b1-2)Man(a1-6)]Man(b1-4)GlcNAc(b1-4)[Fuc(a1-6)]GlcNAc
How it was run: as §1

[31] = molecular target: Fuc(a1-3)[Gal(b1-4)]GlcNAc(b1-3)Gal(b1-3)[Fuc(a1-4)]GlcNAc
How it was run: as §1

[32] = molecular target: Fuc(a1-3)[Gal(b1-4)]GlcNAc(b1-3)GalNAc
How it was run: as §1

[33] = molecular target: Fuc(a1-3)[Gal(b1-4)]GlcNAc(b1-4)Gal(b1-4)[Fuc(a1-3)]GlcNAc
How it was run: as §1

[34] = molecular target: Fuc(a1-3)[Gal(b1-4)]GlcNAc(b1-4)Gal(b1-4)[Fuc(a1-3)]GlcNAc(b1-4)Gal(b1-4)[Fuc(a1-3)]GlcNAc
How it was run: as §1

[35] = molecular target: Fuc(a1-3)[Gal(b1-4)]GlcNAc(b1-6)GalNAc
How it was run: as §1

[36] = molecular target: Fuc(a1-3)[Gal(b1-4)]GlcNAc(b1-6)[Gal(b1-3)GlcNAc(b1-3)]Gal(b1-4)Glc
How it was run: as §1

[37] = molecular target: Fuc(a1-3)[Gal(b1-4)]GlcNAc(b1-6)[Neu5Ac(a2-3)Gal(b1-3)]GalNAc
How it was run: as §1

[38] = molecular target: Fuc(a1-3)[Gal(b1-4)]GlcNAc6S
How it was run: as §1

[39] = molecular target: Fuc(a1-3)[Gal3S(b1-4)]GlcNAc
How it was run: as §1

[40] = molecular target: Fuc(a1-3)[Gal3S(b1-4)]GlcNAc6S
How it was run: as §1

[41] = molecular target: Fuc(a1-3)[GalNAc(b1-4)]GlcNAc
How it was run: as §1

Fuc(a1-4)GlcNAc = molecular target: Fuc(a1-4)GlcNAc
How it was run: as §1

Fuc(b1-3)GlcNAc = molecular target: Fuc(b1-3)GlcNAc
How it was run: as §1

Gal(a1-2)Gal = molecular target: Gal(a1-2)Gal
How it was run: as §1

B1: PGP3 (Chlamydia trachomatis), P0CE18 (protein)
chain: MGNSGFYLYNTQNCVFADNIKVGQMTEPLKDQQIILGTTSTPVAAKMTASDGISLTVSNNPSTNASITIGLDAEKAYQLILEKLGDQILGGIADTIVDSTVQDILDKITTDPSLGLLKAFNNFPITNKIQCNGLFTPRNIETLLGGTEIGKFTVTPKSSGSMFLVSADIIASRMEGGVVLALVREGDSKPYAISYGYSSGVPNLCSLRTRIINTGLTPTTYSLRVGGLESGVVWVNALSNGNDILGITNTSNVSFLEVIPQTNA
[1]
  glycan array binding signal (z-score): -0.321
[2]
  glycan array binding signal (z-score): -1.17
[3]
  glycan array binding signal (z-score): 1.64
[4]
  glycan array binding signal (z-score): 1.23
[5]
  glycan array binding signal (z-score): 1.18
[6]
  glycan array binding signal (z-score): 0.252
[7]
  glycan array binding signal (z-score): 0.436
[8]
  glycan array binding signal (z-score): 0.251
[9]
  glycan array binding signal (z-score): -0.649
[10]
  glycan array binding signal (z-score): -0.523
[11]
  glycan array binding signal (z-score): 0.915
[12]
  glycan array binding signal (z-score): 0.499
[13]
  glycan array binding signal (z-score): 1.15
[14]
  glycan array binding signal (z-score): 1.3
[15]
  glycan array binding signal (z-score): 2.46
[16]
  glycan array binding signal (z-score): 1.44
[17]
  glycan array binding signal (z-score): -0.962
[18]
  glycan array binding signal (z-score): 1.11
[19]
  glycan array binding signal (z-score): 1.55
[20]
  glycan array binding signal (z-score): 0.028
[21]
  glycan array binding signal (z-score): -0.302
[22]
  glycan array binding signal (z-score): 0.429
[23]
  glycan array binding signal (z-score): 0.36
[24]
  glycan array binding signal (z-score): -0.028
[25]
  glycan array binding signal (z-score): -1.54
[26]
  glycan array binding signal (z-score): -0.986
Fuc(a1-3)GlcNAc
  glycan array binding signal (z-score): 1.41
[27]
  glycan array binding signal (z-score): -0.759
[28]
  glycan array binding signal (z-score): 1.09
[29]
  glycan array binding signal (z-score): 2.78
[30]
  glycan array binding signal (z-score): -0.169
[31]
  glycan array binding signal (z-score): -0.101
[32]
  glycan array binding signal (z-score): -1.38
[33]
  glycan array binding signal (z-score): 0.789
[34]
  glycan array binding signal (z-score): 1.29
[35]
  glycan array binding signal (z-score): 0.264
[36]
  glycan array binding signal (z-score): 0.419
[37]
  glycan array binding signal (z-score): 0.65
[38]
  glycan array binding signal (z-score): 1.22
[39]
  glycan array binding signal (z-score): 0.127
[40]
  glycan array binding signal (z-score): -1.42
[41]
  glycan array binding signal (z-score): 0.584
Fuc(a1-4)GlcNAc
  glycan array binding signal (z-score): -0.063
Fuc(b1-3)GlcNAc
  glycan array binding signal (z-score): 0.047
Gal(a1-2)Gal
  glycan array binding signal (z-score): -0.594

From the supplement of paper PMC8728848
